The record followed here is doi:10.1101/2020.09.09.273011.

By UniProt entry, the sequences of proteins in these tests, tags left out. Residues count along the entry.
UniProt Q91ZI0, residues 32-3301: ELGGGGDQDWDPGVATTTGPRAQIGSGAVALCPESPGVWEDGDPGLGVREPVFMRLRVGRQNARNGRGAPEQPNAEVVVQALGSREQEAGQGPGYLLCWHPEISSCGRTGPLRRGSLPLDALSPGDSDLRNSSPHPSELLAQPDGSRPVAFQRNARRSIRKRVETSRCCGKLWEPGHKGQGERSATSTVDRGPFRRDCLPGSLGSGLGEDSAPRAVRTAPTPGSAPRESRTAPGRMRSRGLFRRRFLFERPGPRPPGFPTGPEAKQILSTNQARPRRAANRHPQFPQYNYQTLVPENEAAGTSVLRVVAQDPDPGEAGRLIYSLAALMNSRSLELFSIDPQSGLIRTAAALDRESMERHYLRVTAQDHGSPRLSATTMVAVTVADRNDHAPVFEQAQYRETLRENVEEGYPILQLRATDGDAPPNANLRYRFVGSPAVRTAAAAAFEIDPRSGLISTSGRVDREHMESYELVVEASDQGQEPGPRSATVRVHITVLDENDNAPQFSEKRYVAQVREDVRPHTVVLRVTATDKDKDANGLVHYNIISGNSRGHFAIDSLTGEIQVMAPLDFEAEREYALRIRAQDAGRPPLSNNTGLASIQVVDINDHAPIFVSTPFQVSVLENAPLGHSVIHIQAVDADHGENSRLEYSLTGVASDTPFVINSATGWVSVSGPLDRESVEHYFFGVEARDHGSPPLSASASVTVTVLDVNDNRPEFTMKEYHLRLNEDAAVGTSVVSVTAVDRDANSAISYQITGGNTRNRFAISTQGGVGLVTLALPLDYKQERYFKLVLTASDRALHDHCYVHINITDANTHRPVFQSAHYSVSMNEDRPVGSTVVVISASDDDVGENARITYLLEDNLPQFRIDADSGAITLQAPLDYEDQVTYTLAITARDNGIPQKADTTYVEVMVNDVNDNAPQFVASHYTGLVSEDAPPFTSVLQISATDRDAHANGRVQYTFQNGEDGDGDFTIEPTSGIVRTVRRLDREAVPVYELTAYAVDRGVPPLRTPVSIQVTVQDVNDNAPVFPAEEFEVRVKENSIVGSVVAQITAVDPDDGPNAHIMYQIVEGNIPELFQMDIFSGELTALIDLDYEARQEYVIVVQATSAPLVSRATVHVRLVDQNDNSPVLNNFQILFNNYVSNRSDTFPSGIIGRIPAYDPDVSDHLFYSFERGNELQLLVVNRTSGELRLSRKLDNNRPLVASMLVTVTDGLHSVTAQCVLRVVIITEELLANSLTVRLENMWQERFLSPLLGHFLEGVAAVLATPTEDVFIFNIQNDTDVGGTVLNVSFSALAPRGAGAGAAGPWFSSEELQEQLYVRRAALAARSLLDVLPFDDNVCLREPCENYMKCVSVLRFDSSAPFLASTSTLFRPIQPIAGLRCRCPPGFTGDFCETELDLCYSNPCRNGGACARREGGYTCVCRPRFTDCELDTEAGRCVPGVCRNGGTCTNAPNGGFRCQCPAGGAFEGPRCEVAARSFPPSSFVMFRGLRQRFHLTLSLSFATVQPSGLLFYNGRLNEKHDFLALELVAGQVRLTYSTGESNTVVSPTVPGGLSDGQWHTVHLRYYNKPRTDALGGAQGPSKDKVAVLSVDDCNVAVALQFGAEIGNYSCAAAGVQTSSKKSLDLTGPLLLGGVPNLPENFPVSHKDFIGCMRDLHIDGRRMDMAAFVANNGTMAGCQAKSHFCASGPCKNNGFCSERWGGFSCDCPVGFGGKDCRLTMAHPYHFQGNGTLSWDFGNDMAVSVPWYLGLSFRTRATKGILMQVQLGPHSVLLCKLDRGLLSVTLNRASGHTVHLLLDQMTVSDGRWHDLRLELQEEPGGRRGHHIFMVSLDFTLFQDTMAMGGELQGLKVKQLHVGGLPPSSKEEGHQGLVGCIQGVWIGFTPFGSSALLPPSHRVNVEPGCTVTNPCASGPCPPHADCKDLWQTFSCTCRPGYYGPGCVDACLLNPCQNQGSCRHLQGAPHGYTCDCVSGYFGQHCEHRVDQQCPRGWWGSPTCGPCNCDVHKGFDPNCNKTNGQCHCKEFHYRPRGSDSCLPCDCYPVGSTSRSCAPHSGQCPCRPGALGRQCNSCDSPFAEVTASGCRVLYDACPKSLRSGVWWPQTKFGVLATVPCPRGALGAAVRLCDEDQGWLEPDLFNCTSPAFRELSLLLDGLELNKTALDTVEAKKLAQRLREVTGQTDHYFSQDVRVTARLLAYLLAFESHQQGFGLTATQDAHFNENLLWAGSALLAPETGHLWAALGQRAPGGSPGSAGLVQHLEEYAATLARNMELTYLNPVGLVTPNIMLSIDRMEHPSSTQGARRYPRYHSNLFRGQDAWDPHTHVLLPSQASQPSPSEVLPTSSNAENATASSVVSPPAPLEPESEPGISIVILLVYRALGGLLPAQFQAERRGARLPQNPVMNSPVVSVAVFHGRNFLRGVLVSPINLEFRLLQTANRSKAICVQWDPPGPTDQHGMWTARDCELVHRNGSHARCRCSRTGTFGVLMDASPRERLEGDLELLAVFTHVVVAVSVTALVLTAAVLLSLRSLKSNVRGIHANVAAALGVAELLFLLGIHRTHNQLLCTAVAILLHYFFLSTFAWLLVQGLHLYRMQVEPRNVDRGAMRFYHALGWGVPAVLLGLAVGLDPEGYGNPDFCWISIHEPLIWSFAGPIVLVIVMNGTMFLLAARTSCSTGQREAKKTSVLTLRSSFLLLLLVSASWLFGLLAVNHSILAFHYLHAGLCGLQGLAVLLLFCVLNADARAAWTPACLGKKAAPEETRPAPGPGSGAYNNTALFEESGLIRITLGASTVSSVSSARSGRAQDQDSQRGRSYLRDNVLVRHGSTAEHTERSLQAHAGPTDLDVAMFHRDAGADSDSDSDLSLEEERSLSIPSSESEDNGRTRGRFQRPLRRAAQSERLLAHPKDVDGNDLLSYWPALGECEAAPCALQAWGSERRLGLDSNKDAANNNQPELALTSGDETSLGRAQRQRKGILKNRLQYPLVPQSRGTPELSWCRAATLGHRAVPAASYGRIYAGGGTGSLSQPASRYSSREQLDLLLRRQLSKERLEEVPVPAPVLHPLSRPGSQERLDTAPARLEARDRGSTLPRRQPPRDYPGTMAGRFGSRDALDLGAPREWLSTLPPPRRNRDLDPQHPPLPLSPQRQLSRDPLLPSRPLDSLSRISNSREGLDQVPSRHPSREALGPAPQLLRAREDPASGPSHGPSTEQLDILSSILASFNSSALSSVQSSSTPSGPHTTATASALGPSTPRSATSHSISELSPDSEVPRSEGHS

Read-outs that look alike come from different tables or passages of the source. These are yes or no findings as the source states them, for the method shown. In cells and extracts the contact can be indirect. Some entries that bind do so weakly or less than the wild type. Sequences can lack the tags named with a protein.

Experiment in all cases: co-IP
Experiment [1] concerns the target T1, mouse Frizzled3 (Frizzled3-HA) (mouse) (UniProt Q61086).
T1 sequence: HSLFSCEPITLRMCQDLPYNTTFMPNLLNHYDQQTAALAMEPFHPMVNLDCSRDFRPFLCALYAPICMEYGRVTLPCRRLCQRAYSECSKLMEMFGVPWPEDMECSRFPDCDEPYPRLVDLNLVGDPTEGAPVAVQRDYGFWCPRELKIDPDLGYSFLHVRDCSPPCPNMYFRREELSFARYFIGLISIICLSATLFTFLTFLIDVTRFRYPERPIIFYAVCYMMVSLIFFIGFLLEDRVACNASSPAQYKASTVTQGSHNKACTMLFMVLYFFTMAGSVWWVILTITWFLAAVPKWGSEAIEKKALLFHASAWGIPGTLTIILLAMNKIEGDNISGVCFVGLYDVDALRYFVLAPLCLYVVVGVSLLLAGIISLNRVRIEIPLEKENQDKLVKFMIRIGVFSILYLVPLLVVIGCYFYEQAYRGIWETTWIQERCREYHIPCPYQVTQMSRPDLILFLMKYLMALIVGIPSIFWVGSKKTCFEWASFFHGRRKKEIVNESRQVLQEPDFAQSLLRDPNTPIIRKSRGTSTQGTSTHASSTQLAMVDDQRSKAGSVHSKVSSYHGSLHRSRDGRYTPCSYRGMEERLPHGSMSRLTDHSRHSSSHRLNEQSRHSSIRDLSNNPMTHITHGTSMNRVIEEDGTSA

Experiment [2] concerns the target T1, mouse Frizzled3 (Frizzled3-HA) (mouse). The source holds these as a separate data set.
Experiment [3] addresses mouse Celsr3 (Celsr3-Flag) (mouse) (UniProt Q91ZI0).

In the case of “mouse Celsr3 (Celsr3-Flag) (from UniProt Q91ZI0 32-3301) (receptor)”, the binding result in experiment [1] and in experiment [2] was “binds” throughout.

B1: Vangl2 (expression construct of the co-IP experiments) (protein, UniProt Q91ZD4 1-521)
chain: MDTESQYSGYSYKSGHSRSSRKHRDRRDRHRSKSRDGSRGDKSVTIQAPGEPLLDNESTRGDERDDNWGETTTVVTGTSEHSISHDDLTRIAKDMEDSVPLDCSRHLGVAAGAILALLSFLTPLAFLLLPPLLWREELEPCGTACEGLFISVAFKLLILLLGSWALFFRRPKASLPRVFVLRALLMVLVFLLVISYWLFYGVRILDARERSYQGVVQFAVSLVDALLFVHYLAVVLLELRQLQPQFTLKVVRSTDGASRFYNVGHLSIQRVAVWILEKYYHDFPVYNPALLNLPKSVLAKKVSGFKVYSLGEENSTNNSTGQSRAVIAAAARRRDNSHNEYYYEEAEHERRVRKRRARLVVAVEEAFTHIKRLQEEEQKNPREVMDPREAAQAIFASMARAMQKYLRTTKQQPYHTMESILQHLEFCITHDMTPKAFLERYLAAGPTIQYHKERWLAKQWTLVSEEPVTNGLKDGIVFLLKRQDFSLVVSTKKVPFFKLSEEFVDPKSHKFVMRLQSETSV
B1: the binding entry in experiment [3] is given as “binds”.

B2: mouse Frizzled3 (Frizzled3-HA) (receptor, UniProt Q61086 23-666)
chain: HSLFSCEPITLRMCQDLPYNTTFMPNLLNHYDQQTAALAMEPFHPMVNLDCSRDFRPFLCALYAPICMEYGRVTLPCRRLCQRAYSECSKLMEMFGVPWPEDMECSRFPDCDEPYPRLVDLNLVGDPTEGAPVAVQRDYGFWCPRELKIDPDLGYSFLHVRDCSPPCPNMYFRREELSFARYFIGLISIICLSATLFTFLTFLIDVTRFRYPERPIIFYAVCYMMVSLIFFIGFLLEDRVACNASSPAQYKASTVTQGSHNKACTMLFMVLYFFTMAGSVWWVILTITWFLAAVPKWGSEAIEKKALLFHASAWGIPGTLTIILLAMNKIEGDNISGVCFVGLYDVDALRYFVLAPLCLYVVVGVSLLLAGIISLNRVRIEIPLEKENQDKLVKFMIRIGVFSILYLVPLLVVIGCYFYEQAYRGIWETTWIQERCREYHIPCPYQVTQMSRPDLILFLMKYLMALIVGIPSIFWVGSKKTCFEWASFFHGRRKKEIVNESRQVLQEPDFAQSLLRDPNTPIIRKSRGTSTQGTSTHASSTQLAMVDDQRSKAGSVHSKVSSYHGSLHRSRDGRYTPCSYRGMEERLPHGSMSRLTDHSRHSSSHRLNEQSRHSSIRDLSNNPMTHITHGTSMNRVIEEDGTSA
Regarding B2, the binding entry in experiment [3] is given as “binds”.
